Paper PMC9715707, “Identification of a novel peptide ligand for the cancer-specific receptor mutation EGFRvIII using high-throughput sequencing of phage-selected peptides” (Scientific Reports, 2022)
These are yes or no findings as the source states them, for the method shown.

Molecular target: EGFR WT protein in solution phase (MST) (UniProt P00533)
Assay: MST; Monolith NT.115 Pico, 25 °C; 10 nM protein labelled with NT 650 NHS; 16-step 1:1 dilution of peptide (top 50 µM …; FALGEA 20 µM for EGFR WT, 10 µM for EGFRvIII); 1× PBS pH 7.4, 0.005% Tween-20, 1% DMSO; three independent experiments; both purified

FALGEA [FALGEA peptide (as used in microscale thermophoresis)]
binding: no binding (tested: 20 µM)
